# In publication PMC7819943, “Rice protein-binding microarrays: a tool to detect cis-acting elements near promoter regions in rice”:
# Chains of the proteins cited; added tags and fusions are not shown.
# UniProt Q0JBA9, entry or part of it: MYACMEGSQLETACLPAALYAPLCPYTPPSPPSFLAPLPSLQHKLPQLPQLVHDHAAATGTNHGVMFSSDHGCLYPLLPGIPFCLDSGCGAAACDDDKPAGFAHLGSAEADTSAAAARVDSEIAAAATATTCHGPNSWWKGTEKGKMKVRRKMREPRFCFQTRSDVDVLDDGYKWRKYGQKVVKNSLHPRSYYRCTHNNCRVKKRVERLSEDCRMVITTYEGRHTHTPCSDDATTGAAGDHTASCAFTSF
# Some of the results follow.
# Molecular target: OsWRKY34 (Oryza sativa, UniProt Q0JBA9 1-250)
# Test: protein-binding microarray (RPBM); PBS, 2% BSA, 51.3 ng/ul salmon testes DNA, 50 uM zinc acetate, 200 nM TF, 25 C, 1 h; high values mean tight binding
# Conditions: protein: recombinant; tags: N-terminal polyhistidine and DsRed monomer fusion (pET32a); label: CyDye5-dUTP incorporated in the synthesized complementary strand; 3' TTTTT single-stranded linker to array surface; dsDNA, one strand shown
# Method in brief: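 The binding signal is fluorescence intensity per array feature (arbitrary units). Readings came from an Axon 4000B scanner after a washed, 2% BSA-blocked, double-stranded custom Agilent array had been incubated for 1 h at 25 °C with 200 nM protein and 50 µM zinc acetate. The protein was a Ni–NTA-purified transcription factor fused N-terminally to polyhistidine and DsRed, expressed in E. coli BL21-CodonPlus.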
row,Sequence,binding signal
1,GTATTCATGTCAATCTATTCTACACTCAAGTTGTTGACTTCGGAGTCACCTAGTGCAG,8040 fluorescence intensity (a.u.)
2,CGGCCGCCGCTGGTTTCGTTTCTTTCCTCTCGCCGCCGCCCGGAGTCACCTAGTGCAG,9020 fluorescence intensity (a.u.)
3,CCGGCGTGGCGACGTCAGTACTCTCTTCTGCTTCATTTCTCGGAGTCACCTAGTGCAG,12500 fluorescence intensity (a.u.)
4,TTCATAGCCGCCGCATCTCCTTCTCTTCGACTTTTCTCCTCGGAGTCACCTAGTGCAG,9080 fluorescence intensity (a.u.)
5,AGTCACTTCTTTCATAACTTTATCCACTTGTGCCTCTTAACGGAGTCACCTAGTGCAG,8850 fluorescence intensity (a.u.)
6,CGATCAAGATCATGATTCGTCGCCCAAAATGCACAAGCCTCGGAGTCACCTAGTGCAG,8060 fluorescence intensity (a.u.)
7,ATTTGAATAGTATTTTATGTCTGACTTATTTTTTATTTTTCGGAGTCACCTAGTGCAG,8250 fluorescence intensity (a.u.)
8,CCTGGTGTCCTCCTTGGGTTCGGGGAGGCGGCGGCGGCGCCGGAGTCACCTAGTGCAG,8900 fluorescence intensity (a.u.)
9,GCGCGCATGCCCCGTTTTTTGCGTGCGTGTGGTTTCCAACCGGAGTCACCTAGTGCAG,8170 fluorescence intensity (a.u.)
10,TCTCACTGACATGTGGGCCCCACCTTTAGAAACGCTTTCTCGGAGTCACCTAGTGCAG,8550 fluorescence intensity (a.u.)
11,ACCGTTTCTTGGCCTAGATCCGACCGCGTTTACGGTTCTTCGGAGTCACCTAGTGCAG,8340 fluorescence intensity (a.u.)
12,AGGGGCTTCTGGTTTACCCTTTATTCAATCGCACAAGGATCGGAGTCACCTAGTGCAG,8530 fluorescence intensity (a.u.)
13,GTCGTGGTGGGCTGAGATGATGATGTGGTGGCATGTTCCCCGGAGTCACCTAGTGCAG,9340 fluorescence intensity (a.u.)
14,GAATATAGTTTAGGTCCATACATCCATACCCTTTTTACATCGGAGTCACCTAGTGCAG,11600 fluorescence intensity (a.u.)
15,GATTTCTCTCGTTCTTCACGCGCATGCTTCCTGAACTACTCGGAGTCACCTAGTGCAG,11100 fluorescence intensity (a.u.)
16,GCTGTCACTGTCGTTACACATGTATTAGTACTACGATTACCGGAGTCACCTAGTGCAG,9490 fluorescence intensity (a.u.)
17,TCATAGTATCGCACTATCAATTTCATTCTCTTGTTCCTCACGGAGTCACCTAGTGCAG,11000 fluorescence intensity (a.u.)
18,CGCCCTTTTGTACAATGTAAATGTAGCAATTGCCATTATTCGGAGTCACCTAGTGCAG,8830 fluorescence intensity (a.u.)
19,ATGGTGTTATGAATCAAACTATCAACTCTTTATGTCTTATCGGAGTCACCTAGTGCAG,10000 fluorescence intensity (a.u.)
20,CCGAGCACCGGGCCCACCTGTCATCGACGCCATGCCCTTTCGGAGTCACCTAGTGCAG,8740 fluorescence intensity (a.u.)
21,GGACTTTACTTCTCGTGTTGTCTGTGTTGACTCAAAATTGCGGAGTCACCTAGTGCAG,9960 fluorescence intensity (a.u.)

row,Sequence,binding signal
1,ACACGTTTATTCAGACTTGTTCCAAATTACCAGAGAATTGCGGAGTCACCTAGTGCAG,8110 fluorescence intensity (a.u.)
2,GAAGCTTCCTCGTCGTCCTTTGTTGGGTTGGGTTGGGTTGCGGAGTCACCTAGTGCAG,21000 fluorescence intensity (a.u.)
3,AGTGCCTGCGTGGTGGTTCTTTCAGGGTGCTTATCGTCAACGGAGTCACCTAGTGCAG,10200 fluorescence intensity (a.u.)
4,GAGAGCACCGGCGCGGGGTCGGGGAGGGAGAGGTGCGCGACGGAGTCACCTAGTGCAG,10900 fluorescence intensity (a.u.)
5,GGTTGAAGTTTTTGGCAGGGGTTAGTTTCGAAATAAGTTTCGGAGTCACCTAGTGCAG,17900 fluorescence intensity (a.u.)
6,GACTTCCAATTTACTATGTTTATTACAAGCCTATCCACTACGGAGTCACCTAGTGCAG,8070 fluorescence intensity (a.u.)
7,CTTCTTCTTCTTCTTCTTCTTGGTCCGGAGAGAGTAGAGACGGAGTCACCTAGTGCAG,8090 fluorescence intensity (a.u.)
8,TATTCTGTTGTATTATGATATTATATATATTTTTCTTCGACGGAGTCACCTAGTGCAG,8980 fluorescence intensity (a.u.)
9,CTGGTTGACTATGGTTGTGTTTAGTTTCCTTCAAACTTCACGGAGTCACCTAGTGCAG,10600 fluorescence intensity (a.u.)
10,GAATGCTCTTTCTGTTGCTGCAATTCATTTCATAGCCCATCGGAGTCACCTAGTGCAG,8640 fluorescence intensity (a.u.)
11,CAGCCACCTCTCCATCTTCTGTCCGTTCACCTCTCCGTAACGGAGTCACCTAGTGCAG,12600 fluorescence intensity (a.u.)
12,GATATTCCTCTGGTCGTTCGCATCTACGCCGCCGCCGCCGCGGAGTCACCTAGTGCAG,11300 fluorescence intensity (a.u.)
13,GCGTATCTGTCGTATTGGGCTTGGGCCGTCCGCAACTTTCCGGAGTCACCTAGTGCAG,11500 fluorescence intensity (a.u.)
14,GGGATTTTGTGTTTTTGGTTTTTCTGGAGGGTGCAGAAGGCGGAGTCACCTAGTGCAG,14700 fluorescence intensity (a.u.)
15,TCAGCGTTGTGTGTTAGGTTATGTTTTTTTTTCTCTCTTTCGGAGTCACCTAGTGCAG,9190 fluorescence intensity (a.u.)
16,CCATCCTGCATCCTCCCATGACCACCCGCCACGTCTCGCCCGGAGTCACCTAGTGCAG,10400 fluorescence intensity (a.u.)
17,TATCATTAATGTTTCCTATTGTTTGTTTTGTTTGTGTCTCCGGAGTCACCTAGTGCAG,9530 fluorescence intensity (a.u.)
18,TTGTTTTGTTTGTCTTGTTTCGATTTGTGGTTTAAATTGACGGAGTCACCTAGTGCAG,8020 fluorescence intensity (a.u.)
19,GCTCCAATTGACTGTTCCTTGATGCTCATACCATCTTTGTCGGAGTCACCTAGTGCAG,11600 fluorescence intensity (a.u.)
20,CCTGACCAACACTACCACATGCCGACTTCGCCGCAAACCGCGGAGTCACCTAGTGCAG,8430 fluorescence intensity (a.u.)
21,TACAGCTGCACGTGCTGATTCGGTTTGTTGCTATCCTCTTCGGAGTCACCTAGTGCAG,11000 fluorescence intensity (a.u.)

# Reprinted from the listing for reference:
row,Sequence,binding signal
16,CCATCCTGCATCCTCCCATGACCACCCGCCACGTCTCGCCCGGAGTCACCTAGTGCAG,10400 fluorescence intensity (a.u.)
17,TATCATTAATGTTTCCTATTGTTTGTTTTGTTTGTGTCTCCGGAGTCACCTAGTGCAG,9530 fluorescence intensity (a.u.)
18,TTGTTTTGTTTGTCTTGTTTCGATTTGTGGTTTAAATTGACGGAGTCACCTAGTGCAG,8020 fluorescence intensity (a.u.)
19,GCTCCAATTGACTGTTCCTTGATGCTCATACCATCTTTGTCGGAGTCACCTAGTGCAG,11600 fluorescence intensity (a.u.)
20,CCTGACCAACACTACCACATGCCGACTTCGCCGCAAACCGCGGAGTCACCTAGTGCAG,8430 fluorescence intensity (a.u.)

# Next entries

row,Sequence,binding signal
1,TCTCTATCCTCTCTCTCCATCTTCTCTCTATCTCTCTCTCCGGAGTCACCTAGTGCAG,9210 fluorescence intensity (a.u.)
2,ATCTCTCTCATCTAATTCCTACGTTTTTCCTGCGCTCCAACGGAGTCACCTAGTGCAG,9500 fluorescence intensity (a.u.)
3,CGAACACTTCACCCCATTCCCTTATTTTTATTTATTTATTCGGAGTCACCTAGTGCAG,8080 fluorescence intensity (a.u.)
4,TTGCTTGCTTCCTTTGCTTTCACTCCTGCTGCTCGGCTCACGGAGTCACCTAGTGCAG,8160 fluorescence intensity (a.u.)
5,TCTCGTTTGCACTGATTTTGTAAGTTGGGGTCATGTTGTACGGAGTCACCTAGTGCAG,13500 fluorescence intensity (a.u.)
6,CGCTGTCTGTTGCCACCATTAATGGCTGGCTCCGTGGGTACGGAGTCACCTAGTGCAG,8580 fluorescence intensity (a.u.)
7,ACACCCAAAGCAACTCCATGCATGTTCCTTTTTCTTACCACGGAGTCACCTAGTGCAG,10300 fluorescence intensity (a.u.)
8,TCGTTGCCGCTGCTGCTGGGTCGCTGCCCGCTGTCCCGTCCGGAGTCACCTAGTGCAG,9250 fluorescence intensity (a.u.)
9,AACCGACTTTGCGCAACCTAGATCGAAACTTCATCGTTACCGGAGTCACCTAGTGCAG,8980 fluorescence intensity (a.u.)
10,AACATCAATATCACTACCTTCACTTTGGTCTTATACAAGTCGGAGTCACCTAGTGCAG,9020 fluorescence intensity (a.u.)
11,GAGCCACTCGGAATTCGCCTCCTCCCGCGCCGCCGCCGGCCGGAGTCACCTAGTGCAG,9380 fluorescence intensity (a.u.)
12,TACTTGTAGAACGCAAACCTGTTCGTCCATGTCGCGTTCTCGGAGTCACCTAGTGCAG,8030 fluorescence intensity (a.u.)
13,CACTGTCATTCACTCAGTCCTGGGAGTGTTGTTATTCTCGCGGAGTCACCTAGTGCAG,12300 fluorescence intensity (a.u.)
14,CCATGGCCTTCTTGTCGGTCTCGGTGTTTTTTTTTTTTACCGGAGTCACCTAGTGCAG,12300 fluorescence intensity (a.u.)
15,AGTTGGTTTTGGCAGATATTTCAAGTGGCACTTCTGTTTTCGGAGTCACCTAGTGCAG,8590 fluorescence intensity (a.u.)
16,GCTTCTTCTTCCCTCTCTCTTTCTCTCTCTCTCTTTTTTTCGGAGTCACCTAGTGCAG,10000 fluorescence intensity (a.u.)
17,TCTCCTCCACCTTGCTTGTACCCGCATCCACCTCCTCACCCGGAGTCACCTAGTGCAG,9140 fluorescence intensity (a.u.)
18,AACCCATCGTCTGCTGCCTATAAATAGATCACCTCCTTTCCGGAGTCACCTAGTGCAG,8690 fluorescence intensity (a.u.)
19,AGTAGCAGGTTCAGGTTGTTGATAACGATGGACTAATAATCGGAGTCACCTAGTGCAG,8420 fluorescence intensity (a.u.)
20,AGTAGTTGCTACTGGGTATTTGGACTCTTCCTCTCAGAGACGGAGTCACCTAGTGCAG,8470 fluorescence intensity (a.u.)
21,TCACCCTTGAGCCCCGCGCGCCATCATGTCGTCCTCGAGCCGGAGTCACCTAGTGCAG,9080 fluorescence intensity (a.u.)

row,Sequence,binding signal
1,TGTTCTGCCGGGGTTGTTGCTTACTGATGCAAAACTCTTTCGGAGTCACCTAGTGCAG,9240 fluorescence intensity (a.u.)
2,CCTCGCCTACTTGGGTTCCGTTCTACCACCATCTTTTAGGCGGAGTCACCTAGTGCAG,10800 fluorescence intensity (a.u.)
3,AGTGTGGCGAGTAGTAGTGGTATTCCCCTCTTGGTCTTGGCGGAGTCACCTAGTGCAG,8190 fluorescence intensity (a.u.)
4,GCTTTTCTTTGTCCATCCATCTATCTTTTTCTCCATCTTTCGGAGTCACCTAGTGCAG,8440 fluorescence intensity (a.u.)
5,GCCGCCAGATCCAGCAGGGGCGGGAGGGGAGGCGTGTCCGCGGAGTCACCTAGTGCAG,13100 fluorescence intensity (a.u.)
6,CCTGAGTTTTTGAAAATTAAGGGTTGGGTCTTCTTTGAACCGGAGTCACCTAGTGCAG,14400 fluorescence intensity (a.u.)
7,TCTGCATGGTATGTATAGGCATTTTCTTGAGACATTTTAACGGAGTCACCTAGTGCAG,8380 fluorescence intensity (a.u.)
8,CAGCAGCAGCAGTAATTCCTCCGCTTCTTCTTCCTTGCTGCGGAGTCACCTAGTGCAG,8440 fluorescence intensity (a.u.)
9,GTTTTGTACTCTTTCGTAACAGCCCTCAATGTCTTGGTATCGGAGTCACCTAGTGCAG,11600 fluorescence intensity (a.u.)
10,CGTTGACCCCGCCACCCGCCGTGCACCACCCGCCGCCCACCGGAGTCACCTAGTGCAG,8410 fluorescence intensity (a.u.)
11,TTAATGTTCATTATGGTGTTTCTTAATTGCTTTTTGCTTTCGGAGTCACCTAGTGCAG,10500 fluorescence intensity (a.u.)
12,ATTAATTGGTCCACGCCTTTTCACGTGCCTCTTGCCGCACCGGAGTCACCTAGTGCAG,8040 fluorescence intensity (a.u.)
13,TATAATTTTGTGCTAATATGCATTTTCCTTGTTTTGTTTACGGAGTCACCTAGTGCAG,11300 fluorescence intensity (a.u.)
14,TTTTCGCATGTTTCTTTTCTTTTTTTTTCTTTTCTTTTCCCGGAGTCACCTAGTGCAG,16600 fluorescence intensity (a.u.)
15,ATCGTAATGGATCTCCAATTCGGGGAGGAGGGAGGAATAACGGAGTCACCTAGTGCAG,9420 fluorescence intensity (a.u.)
16,AAACAAATGGTCAAACGTCGTTTAAAAGTCAACGGCGTCACGGAGTCACCTAGTGCAG,11000 fluorescence intensity (a.u.)
17,TTTGTGAGAGAGACTAAAATATATTCCTACCATCTCAAACCGGAGTCACCTAGTGCAG,8260 fluorescence intensity (a.u.)
18,ATAGATGACGCCGTTAACTTTTTCTCACATGTTTAACCATCGGAGTCACCTAGTGCAG,10200 fluorescence intensity (a.u.)
19,TACATTCTTTATGTTTTGCTCCCATATTGCTGATTTCACTCGGAGTCACCTAGTGCAG,8600 fluorescence intensity (a.u.)
20,GCCACGCGCACACACGCCCTGATCGCGCTCCCGGCATCTACGGAGTCACCTAGTGCAG,8260 fluorescence intensity (a.u.)
21,CGACCACCACCGCTGCCGACCCATGTCGCCGTTCGCGGCCCGGAGTCACCTAGTGCAG,8700 fluorescence intensity (a.u.)
